# Laboratory results published in US20130209431A1, “ISOLATION AND CULTURE OF ERYTHROID PROGENITOR CELLS” (NEW YORK BLOOD CENTER, INC., priority 2012, published 2013).
# At least one structure is not confirmed: it was looked up by name or label, or the drawing left a doubt.
# What was measured:
# BFU-E cells = experiment: Flow cytometry of CD34 and CD36 surface expression on cultured BFU-E cells (self-renewal); format: cell-based, human; settings: cultured for 6 days in the presence of dexamethasone
# [1] = test system: CD34−CD36+IL-3R− cells (CFU-E cells); experiment: Liquid culture of sorted CFU-E cells, cell numbers counted every day; format: cell-based, human; settings: dexamethasone 1 μM or lenalidomide 10 nM
# Protocol: (§1) Cells from day 5 cultures were used for sorting since at this time the cultured cells contain about equal numbers of BFU-E and CFU-E forming progenitors. 50×10^6 cells were suspended in 4 mL PBS/0.5% BSA in a 50 mL tube. Cells were blocked with 4% human AB serum for 10 min and subsequently incubated with PE-conjugated mouse anti-human CD34, FITC-conjugated mouse anti-human CD36 and PE-Cy7-conjugated mouse anti-human IL3-R on ice for 30 min in the dark. Cells were washed twice with 40 mL PBS/0.5% BSA and re-suspended in 5 mL PBS/0.5% BSA and stained with the viability marker 7-AAD on ice for 10 min in the dark. Sorting was performed on a MOFLO high-speed cell sorter (Beckman-Coulter). To sort BFU-E and CFU-E cells from primary human bone marrow, we first obtained mononuclear cells by Ficoll density gradient separation. We then obtained CD45^+ cells by positive selection using CD45 magnetic beads. The CD45^+ cells were stained with PE-conjugated mouse anti-human CD34, FITC-conjugated mouse anti-human CD36, PE-Cy7-conjugated mouse anti-human IL3-R, APC-cy7-conjugated mouse anti-human CD45 and APC-conjugated mouse anti-human CD71 for 30 min in the dark. […]
# (§2) 0.1×10^6 of sorted BFU-E and the CFU-E cells were cultured in 1 ml of the first phase culture media (as described before) in the absence or presence of dexamethasone (1 μM) or lenalidomide (10 nM). The cell numbers were counted every day.
# [2] = test system: CD34+CD36−IL-3R+ cells (BFU-E cells); experiment: Liquid culture of sorted BFU-E cells, cell numbers counted every day; format: cell-based, human
# Protocol: as §1, §2
# [3] = test system: purified mouse BFU-E cells / CFU-E cells; settings: cited from earlier work
# human CD34+ cells = settings: cited from earlier work
smiles,measurement,setting,value
C[C@@H]1C[C@H]2[C@@H]3CCC4=CC(=O)C=C[C@]4(C)[C@@]3(F)[C@@H](O)C[C@]2(C)[C@@]1(O)C(=O)CO [dexamethasone],surface expression of CD34 and CD36 on BFU-E cells versus original cells,BFU-E cells,remain almost unchanged
same,response of CD34−CD36+IL-3R− cell proliferation to treatment,[1],not responsive
same,increase of CD34+CD36−IL-3R+ cell numbers every 24 hours,"[2]; dexamethasone 1 μM, doubled in the absence",tripled
same,additional time BFU-E cells continue to proliferate,[2]; in the presence of dexamethasone,at least an additional three days
same,effect on mouse CFU-E cells,[3],had no effect
same,effect on self-renewal of purified mouse BFU-E cells,[3],promoted self-renewal
same,effect on BFU-E colony formation,human CD34+ cells,promotes BFU-E colony formation
same,effect on CFU-E colony formation,human CD34+ cells,has no effect
